Results are given in words; binding and its absence hold for the method and conditions named. In cells and extracts the contact can be indirect. A yes stands for co-enrichment or nearness to the bait. Other partners may have been found. Where a sequence is shown, tags or fusion partners need not be part of it.
Target: T1, NMD3-tev-3XFLAG (human) (UniProt Q96D46)
T1 sequence: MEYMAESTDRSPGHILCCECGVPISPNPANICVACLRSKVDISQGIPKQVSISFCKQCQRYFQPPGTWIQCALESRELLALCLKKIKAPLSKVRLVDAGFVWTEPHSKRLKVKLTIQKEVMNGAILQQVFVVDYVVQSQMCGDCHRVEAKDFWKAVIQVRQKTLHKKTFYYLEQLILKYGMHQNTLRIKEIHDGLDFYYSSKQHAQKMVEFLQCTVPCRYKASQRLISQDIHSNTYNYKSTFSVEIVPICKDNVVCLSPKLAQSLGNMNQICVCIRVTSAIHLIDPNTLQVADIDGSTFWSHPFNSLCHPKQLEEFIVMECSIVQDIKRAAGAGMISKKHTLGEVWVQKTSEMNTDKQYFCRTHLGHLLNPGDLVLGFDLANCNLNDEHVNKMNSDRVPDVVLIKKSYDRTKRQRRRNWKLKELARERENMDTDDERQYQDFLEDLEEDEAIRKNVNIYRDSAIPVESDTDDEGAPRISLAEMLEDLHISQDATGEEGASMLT
Assay: affinity purification with mass spectrometry; bait NMD3-tev-3XFLAG from HEK293 cells, anti-FLAG agarose; LC-MS/MS of the purified pre-60S sample searched against a human proteome database (pFind3)

Sequences of proteins named here, by UniProt entry; tags and fusion partners are left off.
UniProt Q9UNI6: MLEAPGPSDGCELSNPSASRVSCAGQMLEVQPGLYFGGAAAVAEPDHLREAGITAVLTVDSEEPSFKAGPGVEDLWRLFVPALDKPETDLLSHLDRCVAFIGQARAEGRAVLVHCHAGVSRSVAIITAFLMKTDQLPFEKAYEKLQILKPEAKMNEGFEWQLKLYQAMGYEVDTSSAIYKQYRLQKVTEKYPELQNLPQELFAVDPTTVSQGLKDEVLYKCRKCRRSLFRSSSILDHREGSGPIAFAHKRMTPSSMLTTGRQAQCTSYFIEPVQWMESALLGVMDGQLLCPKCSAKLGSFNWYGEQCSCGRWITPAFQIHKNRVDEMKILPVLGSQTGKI

- binding: binds
Substance: DUSP12 (from UniProt Q9UNI6 1-340)

From PMC7363849
